Laboratory results reported in the supplement of paper PMC10849652.
The other results are listed elsewhere or left out.

Protein sequences, listed by entry. Tags and fused reporters are not part of them. Lines headed by an entry give the natural chain unless they say otherwise; changes in a name come on top.
UniProt Q9ULT8: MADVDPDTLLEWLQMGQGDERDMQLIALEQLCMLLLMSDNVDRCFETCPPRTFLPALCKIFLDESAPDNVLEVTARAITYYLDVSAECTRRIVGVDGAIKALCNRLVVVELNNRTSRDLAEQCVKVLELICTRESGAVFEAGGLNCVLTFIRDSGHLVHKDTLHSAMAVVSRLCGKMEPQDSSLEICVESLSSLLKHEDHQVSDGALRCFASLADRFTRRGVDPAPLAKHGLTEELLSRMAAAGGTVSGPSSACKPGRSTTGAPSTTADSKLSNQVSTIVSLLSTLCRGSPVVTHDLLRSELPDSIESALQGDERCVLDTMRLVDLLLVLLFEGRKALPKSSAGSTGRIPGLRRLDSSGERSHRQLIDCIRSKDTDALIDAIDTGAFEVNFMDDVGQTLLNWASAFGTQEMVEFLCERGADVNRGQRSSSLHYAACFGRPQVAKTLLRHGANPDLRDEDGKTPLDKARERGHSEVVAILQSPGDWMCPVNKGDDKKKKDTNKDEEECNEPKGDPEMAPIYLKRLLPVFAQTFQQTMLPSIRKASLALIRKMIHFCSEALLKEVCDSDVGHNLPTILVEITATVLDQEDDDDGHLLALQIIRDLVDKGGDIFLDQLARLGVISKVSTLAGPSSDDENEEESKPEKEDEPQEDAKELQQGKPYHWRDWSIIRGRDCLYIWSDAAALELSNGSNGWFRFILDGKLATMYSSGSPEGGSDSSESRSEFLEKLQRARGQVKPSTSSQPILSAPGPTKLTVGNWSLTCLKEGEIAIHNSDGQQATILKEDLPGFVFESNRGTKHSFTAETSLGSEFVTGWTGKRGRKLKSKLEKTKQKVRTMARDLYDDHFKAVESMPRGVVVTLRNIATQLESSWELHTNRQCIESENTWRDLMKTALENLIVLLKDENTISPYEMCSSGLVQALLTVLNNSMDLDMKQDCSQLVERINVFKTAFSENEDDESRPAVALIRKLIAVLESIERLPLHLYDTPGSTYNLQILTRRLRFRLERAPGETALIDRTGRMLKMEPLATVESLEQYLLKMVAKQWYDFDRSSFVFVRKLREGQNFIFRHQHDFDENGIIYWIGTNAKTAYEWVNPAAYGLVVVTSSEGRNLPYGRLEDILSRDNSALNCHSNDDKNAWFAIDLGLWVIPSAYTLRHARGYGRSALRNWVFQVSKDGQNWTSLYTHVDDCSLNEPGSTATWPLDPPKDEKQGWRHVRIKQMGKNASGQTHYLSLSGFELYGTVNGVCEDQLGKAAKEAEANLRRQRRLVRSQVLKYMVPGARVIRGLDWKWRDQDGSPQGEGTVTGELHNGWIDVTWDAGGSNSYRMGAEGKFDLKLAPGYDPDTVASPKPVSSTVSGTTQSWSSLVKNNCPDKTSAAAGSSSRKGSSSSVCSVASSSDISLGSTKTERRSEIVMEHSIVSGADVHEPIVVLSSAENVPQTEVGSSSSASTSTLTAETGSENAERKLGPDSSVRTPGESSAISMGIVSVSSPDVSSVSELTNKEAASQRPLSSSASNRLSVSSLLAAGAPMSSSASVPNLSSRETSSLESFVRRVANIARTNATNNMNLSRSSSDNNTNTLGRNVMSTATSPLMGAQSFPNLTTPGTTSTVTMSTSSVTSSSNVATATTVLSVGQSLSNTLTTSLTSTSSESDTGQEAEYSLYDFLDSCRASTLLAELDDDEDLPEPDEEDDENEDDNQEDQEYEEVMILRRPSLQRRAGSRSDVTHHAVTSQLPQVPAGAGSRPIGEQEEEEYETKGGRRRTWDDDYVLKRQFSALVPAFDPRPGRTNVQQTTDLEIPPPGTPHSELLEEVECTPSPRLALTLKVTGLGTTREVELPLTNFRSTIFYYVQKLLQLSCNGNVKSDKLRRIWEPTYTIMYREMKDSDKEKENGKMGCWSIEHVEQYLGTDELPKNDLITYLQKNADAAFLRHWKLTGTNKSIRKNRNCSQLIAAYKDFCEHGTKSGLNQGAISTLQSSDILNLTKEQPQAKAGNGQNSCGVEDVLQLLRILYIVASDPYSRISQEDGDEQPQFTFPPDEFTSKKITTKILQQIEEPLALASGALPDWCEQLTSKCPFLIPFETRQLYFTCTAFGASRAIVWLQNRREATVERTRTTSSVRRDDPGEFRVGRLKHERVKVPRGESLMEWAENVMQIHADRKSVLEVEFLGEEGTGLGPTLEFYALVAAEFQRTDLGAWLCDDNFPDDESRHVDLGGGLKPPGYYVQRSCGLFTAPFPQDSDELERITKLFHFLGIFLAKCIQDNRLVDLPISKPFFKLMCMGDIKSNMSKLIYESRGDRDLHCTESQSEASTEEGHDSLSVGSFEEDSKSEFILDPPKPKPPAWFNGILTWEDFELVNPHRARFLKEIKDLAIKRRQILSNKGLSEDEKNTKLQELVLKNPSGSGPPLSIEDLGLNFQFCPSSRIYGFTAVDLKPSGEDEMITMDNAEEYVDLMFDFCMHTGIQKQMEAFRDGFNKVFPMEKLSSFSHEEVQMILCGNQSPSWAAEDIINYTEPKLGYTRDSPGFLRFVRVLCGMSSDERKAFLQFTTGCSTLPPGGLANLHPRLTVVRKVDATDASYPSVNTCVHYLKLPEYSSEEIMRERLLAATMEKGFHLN
UniProt Q86YM7: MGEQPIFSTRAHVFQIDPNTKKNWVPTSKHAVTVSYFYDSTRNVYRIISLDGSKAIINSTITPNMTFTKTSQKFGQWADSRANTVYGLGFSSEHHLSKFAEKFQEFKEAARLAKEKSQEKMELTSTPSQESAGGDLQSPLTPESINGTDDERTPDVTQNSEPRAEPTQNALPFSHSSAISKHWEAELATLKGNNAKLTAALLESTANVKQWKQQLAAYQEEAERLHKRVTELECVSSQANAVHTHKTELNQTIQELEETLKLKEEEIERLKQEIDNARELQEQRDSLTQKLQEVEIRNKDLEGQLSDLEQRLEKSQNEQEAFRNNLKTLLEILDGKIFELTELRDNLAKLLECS
UniProt Q7LGA3: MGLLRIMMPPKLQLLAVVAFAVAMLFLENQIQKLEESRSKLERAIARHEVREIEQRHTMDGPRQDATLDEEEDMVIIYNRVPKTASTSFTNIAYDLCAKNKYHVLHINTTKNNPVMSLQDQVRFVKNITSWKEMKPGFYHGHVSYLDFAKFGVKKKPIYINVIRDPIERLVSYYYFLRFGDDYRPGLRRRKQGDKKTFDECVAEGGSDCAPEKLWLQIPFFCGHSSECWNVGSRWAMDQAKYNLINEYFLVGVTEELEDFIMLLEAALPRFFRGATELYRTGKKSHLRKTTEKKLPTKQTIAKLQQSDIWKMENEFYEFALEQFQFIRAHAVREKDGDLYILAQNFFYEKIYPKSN
UniProt O14979: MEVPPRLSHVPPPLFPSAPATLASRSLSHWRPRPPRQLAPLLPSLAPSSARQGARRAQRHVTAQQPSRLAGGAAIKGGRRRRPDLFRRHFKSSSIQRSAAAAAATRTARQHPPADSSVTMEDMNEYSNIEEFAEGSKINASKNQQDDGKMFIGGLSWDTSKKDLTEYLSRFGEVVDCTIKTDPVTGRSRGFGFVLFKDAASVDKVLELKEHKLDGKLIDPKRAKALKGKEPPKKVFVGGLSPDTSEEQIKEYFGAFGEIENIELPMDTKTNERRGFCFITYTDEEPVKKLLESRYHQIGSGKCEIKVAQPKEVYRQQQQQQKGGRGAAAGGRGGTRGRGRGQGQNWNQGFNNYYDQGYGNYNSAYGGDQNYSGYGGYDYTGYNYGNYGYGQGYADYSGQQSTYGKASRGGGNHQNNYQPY
UniProt Q8NBQ5: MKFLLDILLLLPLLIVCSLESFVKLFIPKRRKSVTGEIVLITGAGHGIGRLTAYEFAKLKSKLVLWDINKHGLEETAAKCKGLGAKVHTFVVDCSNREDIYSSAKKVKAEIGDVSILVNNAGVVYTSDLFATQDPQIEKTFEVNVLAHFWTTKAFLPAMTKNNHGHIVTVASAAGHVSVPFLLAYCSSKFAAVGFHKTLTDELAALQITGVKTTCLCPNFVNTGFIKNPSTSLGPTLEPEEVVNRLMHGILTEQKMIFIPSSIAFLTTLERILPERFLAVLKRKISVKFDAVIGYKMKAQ
UniProt P09651: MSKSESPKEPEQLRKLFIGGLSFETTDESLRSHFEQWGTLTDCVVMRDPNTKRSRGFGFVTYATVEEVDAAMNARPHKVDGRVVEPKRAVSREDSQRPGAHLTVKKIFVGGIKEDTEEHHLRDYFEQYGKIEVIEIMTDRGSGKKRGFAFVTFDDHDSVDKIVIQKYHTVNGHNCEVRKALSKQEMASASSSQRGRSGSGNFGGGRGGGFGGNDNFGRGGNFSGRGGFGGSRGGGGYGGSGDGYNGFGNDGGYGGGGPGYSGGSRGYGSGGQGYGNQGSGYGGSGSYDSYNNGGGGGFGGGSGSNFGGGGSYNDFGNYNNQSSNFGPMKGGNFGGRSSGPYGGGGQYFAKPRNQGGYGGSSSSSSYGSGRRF
UniProt P08238, whole entry, looked up: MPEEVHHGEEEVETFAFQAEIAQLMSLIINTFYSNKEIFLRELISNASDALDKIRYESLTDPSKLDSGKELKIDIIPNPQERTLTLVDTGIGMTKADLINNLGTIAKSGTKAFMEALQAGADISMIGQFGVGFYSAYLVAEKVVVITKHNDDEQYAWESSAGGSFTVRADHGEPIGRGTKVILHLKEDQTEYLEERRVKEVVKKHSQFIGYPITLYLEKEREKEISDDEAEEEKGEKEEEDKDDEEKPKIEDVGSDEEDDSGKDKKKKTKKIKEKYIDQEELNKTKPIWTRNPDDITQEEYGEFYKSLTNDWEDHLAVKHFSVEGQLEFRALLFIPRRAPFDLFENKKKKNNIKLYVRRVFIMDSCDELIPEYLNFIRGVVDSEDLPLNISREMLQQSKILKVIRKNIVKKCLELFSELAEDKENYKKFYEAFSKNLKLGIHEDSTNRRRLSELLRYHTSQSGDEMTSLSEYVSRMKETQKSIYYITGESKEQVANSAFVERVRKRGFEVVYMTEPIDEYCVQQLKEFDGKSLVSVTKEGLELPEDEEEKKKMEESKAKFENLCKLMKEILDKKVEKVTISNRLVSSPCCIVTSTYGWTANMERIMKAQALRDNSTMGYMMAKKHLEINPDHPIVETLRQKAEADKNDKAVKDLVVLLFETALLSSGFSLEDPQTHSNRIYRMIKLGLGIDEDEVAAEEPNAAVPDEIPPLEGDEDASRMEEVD
UniProt Q9BW71: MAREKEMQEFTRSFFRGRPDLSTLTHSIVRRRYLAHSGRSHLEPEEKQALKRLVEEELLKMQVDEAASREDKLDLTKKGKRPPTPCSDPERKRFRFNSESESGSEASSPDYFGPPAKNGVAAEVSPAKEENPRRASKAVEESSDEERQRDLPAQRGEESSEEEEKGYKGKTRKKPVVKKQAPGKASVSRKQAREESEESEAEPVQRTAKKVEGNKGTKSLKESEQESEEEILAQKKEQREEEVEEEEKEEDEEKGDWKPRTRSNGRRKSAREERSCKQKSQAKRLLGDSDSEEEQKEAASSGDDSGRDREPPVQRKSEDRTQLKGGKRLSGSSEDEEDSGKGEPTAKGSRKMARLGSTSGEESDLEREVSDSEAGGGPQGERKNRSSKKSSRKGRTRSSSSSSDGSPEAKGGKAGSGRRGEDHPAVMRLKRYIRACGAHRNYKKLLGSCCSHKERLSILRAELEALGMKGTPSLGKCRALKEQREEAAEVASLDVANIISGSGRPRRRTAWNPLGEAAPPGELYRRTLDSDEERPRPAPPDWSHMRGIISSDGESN

Assays:
Test in all cases: log2 fold change, soluble protein after heating vs DMSO (PISA); higher = thermal stabilisation; K562 lysate, 10 uM; active = over 0.2 and 3.5 SD of the protein, either way, in both replicates (recomputed)
vemurafenib = compound: CCCS(=O)(=O)Nc1ccc(F)c(C(=O)c2c[nH]c3ncc(-c4ccc(Cl)cc4)cc23)c1F [vemurafenib]
Summary of the method: (§1)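 Dounce homogenisation of K562 pellets in PBS pH 7.4 with 1 mM MgCl2 produced a crude extract, used at 1 mg/mL protein. Exposure to 10 μM compound lasted 30 min, and aliquots were then heated for 3 min across 48°C-58°C, pooled and brought to 0.5% NP-40 at 4°C. The supernatant after 21,000xg for 90 min was quantified by TMTpro 16plex LC-MS/MS with channel sums equalised. Duplicate values are given as log-two fold change in thermal stability relative to solvent controls.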

[1] = compound: CCCS(=O)(=O)Nc1ccc(F)c(C(=O)c2c[nH]c3ncc(Cl)cc23)c1F
Summary of the method: as §1

barasertib = compound: CCN(CCCOc1ccc2c(Nc3cc(CC(=O)Nc4cccc(F)c4)[nH]n3)ncnc2c1)CCOP(=O)(O)O [barasertib]
Summary of the method: as §1

[2] = compound: CC[C@@H]1C(=O)N(C)c2cnc(Nc3ccc(C(=O)NC4CCN(C)CC4)cc3OC)nc2N1C1CCCC1
Summary of the method: as §1

volasertib = compound: CC[C@@H]1C(=O)N(C)c2cnc(Nc3ccc(C(=O)N[C@H]4CC[C@H](N5CCN(CC6CC6)CC5)CC4)cc3OC)nc2N1C(C)C [volasertib]
Summary of the method: as §1

[3] = compound: CCn1c(C(=O)N(C2CC2)C2CC2)cc2c3c(ncn3C)c(Nc3cc(C)n(C)n3)nc21
Summary of the method: as §1

[4] = compound: CCn1cc(-c2ccnc3[nH]c(-c4cccc(CN(C)C)c4)cc23)c(-c2ccc(NC(=O)N(C)C)cc2)n1
Summary of the method: as §1

[5] = compound: CN1CCC(CNc2ccc3ncc(-c4cccc(OC(F)(F)F)c4)n3n2)CC1
Summary of the method: as §1

saracatinib = compound: CN1CCN(CCOc2cc(OC3CCOCC3)c3c(Nc4c(Cl)ccc5c4OCO5)ncnc3c2)CC1 [saracatinib]
Summary of the method: as §1

sotrastaurin = compound: CN1CCN(c2nc(C3=C(c4c[nH]c5ccccc45)C(=O)NC3=O)c3ccccc3n2)CC1 [sotrastaurin]
Summary of the method: as §1

alvocidib = compound: CN1CC[C@H](c2c(O)cc(O)c3c(=O)cc(-c4ccccc4Cl)oc23)[C@H](O)C1 [alvocidib]
Summary of the method: as §1

Tubastatin A = compound: CN1CCc2c(c3ccccc3n2Cc2ccc(C(=O)NO)cc2)C1 [Tubastatin A]
Summary of the method: as §1

[6] = compound: CNC(=O)C1=CC=CC=C1NC2=NC(=NC=C2Cl)NC3=C(C=C(C=C3)N4CCOCC4)OC
Summary of the method: as §1

defactinib = compound: CNC(=O)c1ccc(Nc2ncc(C(F)(F)F)c(NCc3nccnc3N(C)S(C)(=O)=O)n2)cc1 [defactinib]
Summary of the method: as §1

[7] = compound: CNc1nc(-c2ccc3c(N)n[nH]c3c2)cc(N2C[C@@H](C(=O)NC3CCCCC3)CC[C@H]2C)n1
Summary of the method: as §1

encorafenib = compound: COC(=O)N[C@@H](C)CNc1nccc(-c2cn(C(C)C)nc2-c2cc(Cl)cc(NS(C)(=O)=O)c2F)n1 [encorafenib]
Summary of the method: as §1

[8] = compound: COC(=O)[C@H](CCSC)NC(=O)C1=C(C=C(C=C1)NC[C@H](CS)N)C2=CC=CC=C2
Summary of the method: as §1

alisertib = compound: COc1cc(Nc2ncc3c(n2)-c2ccc(Cl)cc2C(c2c(F)cccc2OC)=NC3)ccc1C(=O)O [alisertib]
Summary of the method: as §1

[9] = compound: COc1cc2nc(-c3cc(F)ccc3O)nc(N[C@@H]3CNC[C@H]3C(C)(C)O)c2cc1OC
Summary of the method: as §1

gefitinib = compound: COc1cc2ncnc(Nc3ccc(F)c(Cl)c3)c2cc1OCCCN1CCOCC1 [gefitinib]
Summary of the method: as §1

Measured: log2 fold change

HECTD1 (UniProt Q9ULT8)
inactive: vemurafenib -0.003 | [1] 0.018 | barasertib 0.054 | [2] 0.027 | volasertib -0.035 | [3] 0.009 | [4] -0.039 | [5] -0.011 | saracatinib 0.001 | sotrastaurin 0.016 | alvocidib -0.01 | Tubastatin A -0.054 | [6] -0.017 | defactinib 0.026 | [7] 0.005 | encorafenib -0.005 | [8] 0.012 | alisertib -0.002 | [9] 0.034 | gefitinib 0.013

HOMER1 (UniProt Q86YM7)
inactive: vemurafenib -0.019 | [1] 0.021 | barasertib 0.016 | [2] 0.025 | volasertib -0.003 | [3] -0.021 | [4] 0.049 | [5] -0.038 | saracatinib 0.012 | sotrastaurin 0.016 | alvocidib 0.031 | Tubastatin A 0.027 | [6] 0.026 | defactinib -0.019 | [7] 0.046 | encorafenib 0.03 | [8] 0.01 | alisertib 0.009 | [9] -0.02 | gefitinib -0.035

HS2ST1 (UniProt Q7LGA3)
inactive: vemurafenib -0.082 | [1] 0.009 | barasertib -0.057 | [2] -0.02 | volasertib -0.015 | [3] 0.003 | [4] -0.01 | [5] -0.023 | saracatinib -0.022 | sotrastaurin 0.058 | alvocidib -0.022 | Tubastatin A 0.063 | [6] 0.063 | defactinib 0.06 | [7] 0.014 | encorafenib 0.044 | [8] 0.007 | alisertib 0.095 | [9] -0.07 | gefitinib 0.035

2 records drawn at random from those above, as already listed:
HECTD1 (UniProt Q9ULT8)
inactive: vemurafenib -0.003 | [1] 0.018 | barasertib 0.054 | [2] 0.027 | volasertib -0.035 | [3] 0.009 | [4] -0.039 | [5] -0.011 | saracatinib 0.001 | sotrastaurin 0.016 | alvocidib -0.01 | Tubastatin A -0.054 | [6] -0.017 | defactinib 0.026 | [7] 0.005 | encorafenib -0.005 | [8] 0.012 | alisertib -0.002 | [9] 0.034 | gefitinib 0.013

HS2ST1 (UniProt Q7LGA3)
inactive: vemurafenib -0.082 | [1] 0.009 | barasertib -0.057 | [2] -0.02 | volasertib -0.015 | [3] 0.003 | [4] -0.01 | [5] -0.023 | saracatinib -0.022 | sotrastaurin 0.058 | alvocidib -0.022 | Tubastatin A 0.063 | [6] 0.063 | defactinib 0.06 | [7] 0.014 | encorafenib 0.044 | [8] 0.007 | alisertib 0.095 | [9] -0.07 | gefitinib 0.035

Next part:

HNRNPDL (UniProt O14979)
inactive: vemurafenib -0.039 | [1] 0.026 | barasertib -0.03 | [2] 0.008 | volasertib -0.002 | [3] 0.003 | [4] 0.043 | [5] 0.018 | saracatinib -0.036 | sotrastaurin -0.098 | alvocidib 0.01 | Tubastatin A -0.017 | [6] 0.018 | defactinib -0.006 | [7] -0.002 | encorafenib -0.028 | [8] -0.017 | alisertib 0.04 | [9] -0.005 | gefitinib -0.029

HSD17B11 (UniProt Q8NBQ5)
inactive: vemurafenib 0.021 | [1] -0.023 | barasertib -0.01 | [2] 0.016 | volasertib 0.024 | [3] 0.036 | [4] -0.009 | [5] 0.033 | saracatinib 0.004 | sotrastaurin 0.043 | alvocidib 0.013 | Tubastatin A 0.022 | [6] -0.019 | defactinib 0.014 | [7] -0.002 | encorafenib -0.008 | [8] -0.028 | alisertib -0.025 | [9] 0.002 | gefitinib 0.039

HNRNPA1 (UniProt P09651)
inactive: vemurafenib 0.015 | [1] 0.011 | barasertib 0.023 | [2] 0.01 | volasertib -0.006 | [3] 0.001 | [4] 0.193 | [5] -0.025 | saracatinib -0.002 | sotrastaurin -0.011 | alvocidib -0.011 | Tubastatin A 0.011 | [6] 0.003 | defactinib -0.01 | [7] 0.055 | encorafenib -0.028 | [8] -0.02 | alisertib 0.011 | [9] 0.007 | gefitinib 0.006

HSP90AB1 (UniProt P08238)
inactive: vemurafenib -0.021 | [1] 0.01 | barasertib -0.013 | [2] 0.019 | volasertib -0.003 | [3] -0.004 | [4] 0.106 | [5] -0.064 | saracatinib 0.004 | sotrastaurin -0.012 | alvocidib 0.054 | Tubastatin A 0.028 | [6] -0.001 | defactinib 0.015 | [7] -0.002 | encorafenib -0.013 | [8] 0.011 | alisertib -0.009 | [9] -0.005 | gefitinib -0.03

HIRIP3 (UniProt Q9BW71)
inactive: vemurafenib 0.007 | [1] 0.027 | barasertib -0.073 | [2] 0.062 | volasertib 0.01 | [3] -0.001 | [4] -0.007 | [5] -0.028 | saracatinib 0.019 | sotrastaurin -0.02 | alvocidib -0.023 | Tubastatin A 0.016 | [6] 0.033 | defactinib -0.014 | [7] 0.062 | encorafenib 0.025 | [8] -0.012 | alisertib 0.046 | [9] 0 | gefitinib 0.05
